Binding data for one substance are collected here from article PMC3391290.

Protein sequences, listed by entry. Tags and fused reporters are not part of them. Lines headed by an entry give the natural chain unless they say otherwise; changes in a name come on top. Residues count along the entry.
UniProt P22888, residues 27-699: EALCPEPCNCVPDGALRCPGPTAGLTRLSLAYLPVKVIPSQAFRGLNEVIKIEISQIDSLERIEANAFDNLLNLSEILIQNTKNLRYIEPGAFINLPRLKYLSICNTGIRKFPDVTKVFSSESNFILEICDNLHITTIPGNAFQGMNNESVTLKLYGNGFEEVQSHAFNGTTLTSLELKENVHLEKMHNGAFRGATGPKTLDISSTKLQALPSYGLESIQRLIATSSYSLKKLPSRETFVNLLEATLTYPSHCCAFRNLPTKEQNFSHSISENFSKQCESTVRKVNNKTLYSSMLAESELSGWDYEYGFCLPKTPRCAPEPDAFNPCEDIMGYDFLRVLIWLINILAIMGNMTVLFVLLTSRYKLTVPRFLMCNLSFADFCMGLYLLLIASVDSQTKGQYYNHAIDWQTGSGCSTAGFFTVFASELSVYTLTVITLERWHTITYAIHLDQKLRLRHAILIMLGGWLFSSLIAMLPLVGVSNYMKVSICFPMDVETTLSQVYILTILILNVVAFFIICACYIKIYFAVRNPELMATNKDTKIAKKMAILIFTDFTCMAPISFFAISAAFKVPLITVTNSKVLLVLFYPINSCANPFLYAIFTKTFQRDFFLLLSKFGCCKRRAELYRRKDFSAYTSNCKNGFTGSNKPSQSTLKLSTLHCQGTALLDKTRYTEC
UniProt P01215: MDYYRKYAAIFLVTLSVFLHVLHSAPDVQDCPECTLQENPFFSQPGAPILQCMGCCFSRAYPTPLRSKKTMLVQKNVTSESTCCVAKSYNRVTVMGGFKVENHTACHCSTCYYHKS

The target of this assay is human LH receptor (hLHR) (human) (UniProt P22888). As to the kind of experiment: radioligand binding; 125I-hCG or 125I-hTSH incubated with increasing dilutions of MAb 2A6 for 1 h at room temperature, then membrane preparation of HEK293-LHR or HEK293-TSHR for 1 h; bound label pelleted and counted; only the binder purified.

These are yes or no findings as the source states them, for the method shown. Some entries that bind do so weakly or less than the wild type.

Regarding “human chorionic gonadotropin (hCG) (from UniProt P01215 25-116; P0DN86 21-165) (ligand)”, the binding entry is listed as “binds”.
